Reference: PMC8443252
No constants are given. Whether binding was seen depends on the method and setting. Binding seen in cells or lysates may run through a third protein. These calls come from enrichment with a bait or labelling near it, and not all partners need be listed. Tags and fused reporters may be left off the sequences shown.

Amino acid sequences for entries named in this document (tags omitted).
UniProt Q7JV23: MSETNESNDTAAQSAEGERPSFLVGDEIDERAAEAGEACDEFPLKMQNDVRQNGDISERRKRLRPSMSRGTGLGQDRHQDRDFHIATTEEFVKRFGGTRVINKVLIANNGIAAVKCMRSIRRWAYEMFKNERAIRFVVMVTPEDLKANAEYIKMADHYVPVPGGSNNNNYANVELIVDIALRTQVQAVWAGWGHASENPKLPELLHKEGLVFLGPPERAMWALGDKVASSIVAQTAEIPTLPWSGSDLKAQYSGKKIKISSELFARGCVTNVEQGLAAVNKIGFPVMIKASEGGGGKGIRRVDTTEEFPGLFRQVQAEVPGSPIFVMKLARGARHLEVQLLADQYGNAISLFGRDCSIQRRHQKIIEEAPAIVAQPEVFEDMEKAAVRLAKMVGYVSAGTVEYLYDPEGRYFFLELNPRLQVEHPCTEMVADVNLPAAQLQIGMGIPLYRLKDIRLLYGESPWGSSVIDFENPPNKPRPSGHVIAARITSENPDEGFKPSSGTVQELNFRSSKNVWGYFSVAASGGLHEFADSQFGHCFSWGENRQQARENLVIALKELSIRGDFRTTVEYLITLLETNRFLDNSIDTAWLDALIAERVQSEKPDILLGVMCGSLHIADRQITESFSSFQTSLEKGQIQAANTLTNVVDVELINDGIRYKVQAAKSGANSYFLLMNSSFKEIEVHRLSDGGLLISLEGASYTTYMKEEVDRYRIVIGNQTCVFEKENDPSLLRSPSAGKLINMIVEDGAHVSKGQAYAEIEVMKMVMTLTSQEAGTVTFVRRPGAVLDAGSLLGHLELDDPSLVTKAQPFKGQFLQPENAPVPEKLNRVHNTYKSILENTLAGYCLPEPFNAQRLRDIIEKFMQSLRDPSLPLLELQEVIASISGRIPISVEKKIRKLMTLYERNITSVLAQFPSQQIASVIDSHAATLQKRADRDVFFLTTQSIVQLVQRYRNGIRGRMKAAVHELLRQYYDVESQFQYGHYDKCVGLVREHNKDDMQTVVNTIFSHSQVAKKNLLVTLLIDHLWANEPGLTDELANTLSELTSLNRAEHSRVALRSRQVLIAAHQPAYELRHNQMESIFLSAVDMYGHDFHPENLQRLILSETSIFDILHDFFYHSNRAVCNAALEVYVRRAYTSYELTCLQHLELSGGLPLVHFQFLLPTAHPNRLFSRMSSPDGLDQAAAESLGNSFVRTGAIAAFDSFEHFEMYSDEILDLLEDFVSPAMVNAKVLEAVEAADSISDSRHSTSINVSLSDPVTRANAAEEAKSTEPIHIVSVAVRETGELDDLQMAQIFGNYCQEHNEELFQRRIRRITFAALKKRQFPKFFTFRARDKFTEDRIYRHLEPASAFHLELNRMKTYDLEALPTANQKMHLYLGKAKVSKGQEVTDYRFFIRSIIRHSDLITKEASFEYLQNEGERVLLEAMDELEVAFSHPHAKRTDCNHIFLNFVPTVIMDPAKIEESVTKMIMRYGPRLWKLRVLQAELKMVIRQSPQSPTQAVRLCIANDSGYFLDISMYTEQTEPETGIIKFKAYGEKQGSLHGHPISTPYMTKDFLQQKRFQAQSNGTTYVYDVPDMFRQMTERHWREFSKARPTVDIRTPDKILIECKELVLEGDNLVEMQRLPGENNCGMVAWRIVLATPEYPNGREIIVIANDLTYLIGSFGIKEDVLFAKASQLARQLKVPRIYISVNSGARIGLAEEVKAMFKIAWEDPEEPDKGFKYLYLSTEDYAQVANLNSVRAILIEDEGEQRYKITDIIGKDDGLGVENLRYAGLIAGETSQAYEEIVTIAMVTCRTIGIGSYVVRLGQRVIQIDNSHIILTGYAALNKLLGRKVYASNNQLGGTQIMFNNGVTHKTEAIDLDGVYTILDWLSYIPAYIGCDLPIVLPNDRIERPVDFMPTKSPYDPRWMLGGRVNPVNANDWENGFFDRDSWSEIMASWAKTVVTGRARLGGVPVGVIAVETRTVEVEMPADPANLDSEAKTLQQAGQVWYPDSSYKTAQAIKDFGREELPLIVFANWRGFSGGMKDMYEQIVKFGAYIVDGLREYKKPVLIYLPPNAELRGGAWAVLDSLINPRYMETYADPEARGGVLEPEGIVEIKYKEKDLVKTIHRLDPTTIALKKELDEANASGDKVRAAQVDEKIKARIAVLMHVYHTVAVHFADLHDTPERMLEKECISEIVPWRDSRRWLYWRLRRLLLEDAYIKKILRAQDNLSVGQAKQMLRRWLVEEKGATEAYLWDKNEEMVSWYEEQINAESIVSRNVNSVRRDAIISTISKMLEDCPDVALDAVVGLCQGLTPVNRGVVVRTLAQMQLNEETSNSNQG
UniProt Q9VQL6: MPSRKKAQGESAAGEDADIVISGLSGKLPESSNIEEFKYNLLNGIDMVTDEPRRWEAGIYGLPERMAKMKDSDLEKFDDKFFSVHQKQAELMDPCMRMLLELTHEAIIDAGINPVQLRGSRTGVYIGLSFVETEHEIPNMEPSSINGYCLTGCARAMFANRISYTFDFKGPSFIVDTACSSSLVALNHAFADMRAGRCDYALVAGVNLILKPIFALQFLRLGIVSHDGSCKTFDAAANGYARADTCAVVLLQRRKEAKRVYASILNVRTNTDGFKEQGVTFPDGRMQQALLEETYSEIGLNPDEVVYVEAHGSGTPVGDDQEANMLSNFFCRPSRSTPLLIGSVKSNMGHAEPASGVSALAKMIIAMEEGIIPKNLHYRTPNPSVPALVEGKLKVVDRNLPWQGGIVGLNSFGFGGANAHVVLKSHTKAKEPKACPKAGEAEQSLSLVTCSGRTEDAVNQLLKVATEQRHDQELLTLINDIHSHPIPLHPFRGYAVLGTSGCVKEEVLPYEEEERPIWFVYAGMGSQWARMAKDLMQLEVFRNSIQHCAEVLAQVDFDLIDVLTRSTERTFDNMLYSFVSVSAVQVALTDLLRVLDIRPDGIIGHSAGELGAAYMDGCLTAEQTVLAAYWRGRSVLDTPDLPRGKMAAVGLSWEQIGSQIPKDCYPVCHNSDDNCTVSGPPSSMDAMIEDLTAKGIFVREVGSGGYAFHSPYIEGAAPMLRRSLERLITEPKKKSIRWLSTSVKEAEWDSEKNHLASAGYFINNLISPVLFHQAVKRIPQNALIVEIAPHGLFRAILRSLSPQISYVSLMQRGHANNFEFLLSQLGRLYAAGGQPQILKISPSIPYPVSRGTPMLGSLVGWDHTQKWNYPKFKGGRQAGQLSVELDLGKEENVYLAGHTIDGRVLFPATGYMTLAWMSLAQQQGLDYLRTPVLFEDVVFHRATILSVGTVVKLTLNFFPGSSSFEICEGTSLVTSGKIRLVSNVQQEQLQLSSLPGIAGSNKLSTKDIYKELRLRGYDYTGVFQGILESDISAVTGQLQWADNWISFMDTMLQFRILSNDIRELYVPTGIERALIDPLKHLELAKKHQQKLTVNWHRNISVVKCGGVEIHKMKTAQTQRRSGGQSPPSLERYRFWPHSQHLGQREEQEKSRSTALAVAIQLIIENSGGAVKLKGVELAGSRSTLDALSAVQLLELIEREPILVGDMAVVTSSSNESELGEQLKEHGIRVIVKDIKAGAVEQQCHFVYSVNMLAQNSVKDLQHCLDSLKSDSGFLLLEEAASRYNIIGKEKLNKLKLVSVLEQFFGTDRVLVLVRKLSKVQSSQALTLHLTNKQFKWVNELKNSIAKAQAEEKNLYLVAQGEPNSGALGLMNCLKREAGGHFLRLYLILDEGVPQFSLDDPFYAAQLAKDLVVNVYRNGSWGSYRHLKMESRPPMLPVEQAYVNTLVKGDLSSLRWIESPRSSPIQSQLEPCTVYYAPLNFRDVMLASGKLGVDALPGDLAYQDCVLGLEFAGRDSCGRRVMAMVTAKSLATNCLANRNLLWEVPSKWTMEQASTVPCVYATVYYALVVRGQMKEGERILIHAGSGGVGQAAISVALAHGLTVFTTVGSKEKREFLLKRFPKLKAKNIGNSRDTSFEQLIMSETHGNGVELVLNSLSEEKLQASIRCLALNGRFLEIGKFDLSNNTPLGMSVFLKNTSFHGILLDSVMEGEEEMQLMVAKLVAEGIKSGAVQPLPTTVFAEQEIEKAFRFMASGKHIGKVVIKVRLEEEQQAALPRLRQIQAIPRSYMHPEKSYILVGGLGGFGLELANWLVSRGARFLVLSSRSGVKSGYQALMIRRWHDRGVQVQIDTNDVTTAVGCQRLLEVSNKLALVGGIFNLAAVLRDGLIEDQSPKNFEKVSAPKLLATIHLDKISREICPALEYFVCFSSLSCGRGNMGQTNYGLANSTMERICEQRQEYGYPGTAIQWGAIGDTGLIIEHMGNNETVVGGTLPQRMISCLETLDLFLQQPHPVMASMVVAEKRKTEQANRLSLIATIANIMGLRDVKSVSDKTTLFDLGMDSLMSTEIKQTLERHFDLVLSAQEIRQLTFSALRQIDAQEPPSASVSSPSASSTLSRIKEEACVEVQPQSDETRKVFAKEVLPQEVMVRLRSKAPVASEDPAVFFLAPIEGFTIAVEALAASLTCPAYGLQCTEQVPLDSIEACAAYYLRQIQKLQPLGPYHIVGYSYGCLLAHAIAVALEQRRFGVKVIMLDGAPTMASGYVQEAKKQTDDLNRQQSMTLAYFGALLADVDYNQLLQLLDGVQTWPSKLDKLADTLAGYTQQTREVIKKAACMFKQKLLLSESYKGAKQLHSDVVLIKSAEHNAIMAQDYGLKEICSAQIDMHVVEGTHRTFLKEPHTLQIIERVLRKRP

biological target: T1, GFP-tagged Drosophila STING (D. melanogaster); test: affinity purification with mass spectrometry; anti-GFP (DSHB 4C9) immunoprecipitation from fat bodies of third-instar larvae overexpressing GFP-dSTING (tub-GAL4); IP buffer 25 mM HEPES pH 7.6, 0.1 mM EDTA, 12 mM MgCl2, 100 mM NaCl, 1% NP-40; gel bands of ~250 kDa and ~30 kDa excised; control w1118 lysate with recombinant GFP added
T1 sequence: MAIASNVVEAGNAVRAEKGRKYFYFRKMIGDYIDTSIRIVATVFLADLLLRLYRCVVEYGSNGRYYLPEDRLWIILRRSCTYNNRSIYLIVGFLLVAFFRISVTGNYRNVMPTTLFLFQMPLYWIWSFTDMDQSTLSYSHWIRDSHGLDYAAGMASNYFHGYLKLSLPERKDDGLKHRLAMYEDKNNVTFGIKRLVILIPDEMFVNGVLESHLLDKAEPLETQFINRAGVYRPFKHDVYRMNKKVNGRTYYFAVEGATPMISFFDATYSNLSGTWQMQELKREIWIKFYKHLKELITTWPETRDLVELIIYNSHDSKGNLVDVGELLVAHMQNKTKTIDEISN

| Substance | binding |
| --- | --- |
| acetyl-CoA carboxylase (from UniProt Q7JV23 1-2323) (enzyme) | binds |
| fatty acid synthase 1 (from UniProt Q9VQL7 1-2438) (enzyme) | binds |
| fatty acid synthase 2 (from UniProt Q9VQL6 1-2409) (enzyme) | binds |
